The values below come from PubChem BioAssay AID493014 (National Center for Advancing Translational Sciences (NCATS), 2011).

This experiment in a line: qHTS Assay to Find Inhibitors of Chronic Active B-Cell Receptor Signaling. The following applies: ABC-DLBCL IkBa-CBG/CBR reporter, luminescence ratio (green luciferase fused to IkBa over red control in TMD8 lymphoma cells), 4 h. In short, it runs like this:
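Compounds up to 46 uM were incubated four hours with TMD8 cells whose green CBG68 luciferase is fused to IkappaBalpha; red CBR luminescence normalised the signal, and concentration-effect curves were fitted to fusion, red and ratio data.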
Background: In qHTS, concentration-response curves come from the screen itself.

Setting [1] is: measured here: CBR red luminescence, cell number.
[2] abbreviates: measured here: IkBa-CBG green luminescence.

The other results are listed elsewhere or left out. Shown are side measurements of this screen, not its main read-out; they come without a call. The list favours compounds with an active or inconclusive main result. The note in brackets gives the kind of curve behind each potency; many fits are weak.

What is called AC50 is the concentration giving half of the maximal activity seen. `CC(=O)NCCSC(=O)c1ccc(F)cc1`: the AC50 under setting [1] was 23.1 µM [falling, single point].

`COc1ccc(C)cc1N(CC(=O)NCCSCc1ccco1)S(=O)(=O)c1ccc(C)cc1`: the AC50 under setting [1] was 35.5 µM [falling, single point].

For `COc1ccc(NS(=O)(=O)c2ccc(NS(=O)(=O)c3ccc(SC)cc3)cc2)c(OC)c1`, the AC50 under setting [1] is 29.1 µM [falling, single point].

For `COc1ccc(-c2sc3cc(OC)c(OC)cc3c2C#CC(C)(C)O)cc1`, the AC50 reads like this: under setting [1], 16.4 µM [rising, partial curve]; under setting [2], 18.4 µM [falling, partial curve, poor fit].

On to `CC(C)C(=O)Nc1ccc2c3c(cccc13)CC2`, for which the AC50 under setting [1] is 35.5 µM [rising, single point].

Consider `CCN(CC)C(=O)Oc1ccc(Br)cc1C(=O)Nc1ccc(F)c(Cl)c1`, for which the AC50 under setting [1] is 7.08 µM [falling, partial curve, poor fit].

As to `COc1cccc(NC(=O)CSC2=C(C#N)C(c3ccco3)C3=C(CCCC3=O)N2)c1` (stereo not given), the AC50 under setting [1] is 20.6 µM [falling, single point].

Regarding `O=[N+]([O-])c1cccc(NC(=S)Nc2nc(-c3ccccc3Cl)cs2)c1`, under setting [1], the AC50 was 35.5 µM [falling, single point].

Consider `CCCCNc1oc(-c2cccs2)nc1S(=O)(=O)c1ccccc1`, for which the concentration at half-maximal activity (AC50) is 4.11 µM [falling, partial curve, poor fit] under setting [1] and 20.6 µM [rising, partial curve, poor fit] under setting [2].

Consider `Cc1ccccc1OCC(=O)Nc1cccc(S(=O)(=O)NC2=NCCCCC2)c1`, for which, under setting [1], the AC50 is 20.6 µM [falling, single point].

For `CC(C)CC(=O)NCc1ccc(F)cc1`, the AC50 under setting [1] is 20 µM [falling, partial curve, poor fit].

On to `COC(=O)c1sc(NC(=O)COc2cccc3ccccc23)nc1C`, for which the AC50 under setting [1] is 3.16 µM [falling, partial curve].

`COc1ccc2cc(C(=O)C3CCCN(C(=O)CCc4cnn(C)c4)C3)ccc2c1` (stereo not given): the AC50 under setting [1] was 2.82 µM [rising, full curve].

Regarding `Cc1ccc(NC(=O)CSc2ncccn2)cc1F`, the AC50 under setting [1] was 4.47 µM [rising, full curve, poor fit].

For the compound `N#Cc1c(C(F)(F)F)cc(-c2ccc(Cl)cc2)nc1SCC(=O)O`, the AC50 under setting [1] was 11.2 µM [falling, partial curve, poor fit].

In the case of `COc1ccc(-c2nn(-c3ccccc3)cc2/C=C/C(=O)O)cc1[N+](=O)[O-]`, the AC50 reads like this: under setting [1], 3.55 µM [falling, single point]; under setting [2], 12.6 µM [falling, partial curve].

On to `CCNC(=O)COC(=O)Cc1ccc(Cl)cc1Cl`, for which the AC50 under setting [1] is 11.2 µM [rising, partial curve, poor fit].
